PubChem BioAssay AID1224828, NIAID, 2016
This is an unselected part of about 17,000 deposited reagents. 762 of them (4.5%) count as active. 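Active calls include both raised and lowered p65 entry, mostly lowered; wells with fewer than 50 cells lack a z-score.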 Raw values are not corrected between plates. The numbers tell different reagents against one gene apart. No sequences are given here.

- Assay: 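Regulators linking TLR4 signalling to p65 nuclear translocation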 (primary screen)
- Cell system: mouse RAW264.7 G9 macrophage reporter cells (GFP-p65, Tnf promoter-mCherry)
- Reagents: siRNA pool against mouse genes, 100 nM
- Time to read-out: 2 days siRNA transfection, then 40 min LPS before fixation
- Conditions: LPS (Salmonella minnesota R595) at 10 ng/ml
- Measured: 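Imaged p65 nuclear translocation ratio, normalised to the plate median, converted to robust z-scores and averaged across two replicates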
- Scale: p65 translocation robust z-score: higher = more nuclear NF-kappaB p65 after LPS than the plate median; nuclear/cytoplasmic p65 ratio: higher = more nuclear NF-kappaB p65
- Hit rule: 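Active if robust z is above 3.3 (negative regulators) or below -1.56, the Tlr4 control median (positive regulators); activity score 50 or more; control wells not called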
- Meaning of the calls: active = hit (p65 shift raised or lowered); inactive = no clear change

Polr1b (polymerase (RNA) I polypeptide B): p65 translocation robust z-score = 0.14; nuclear/cytoplasmic p65 ratio, rep 1 = 1.41; nuclear/cytoplasmic p65 ratio, rep 2 = 1.26; low cell count flag = enough cells to score; Outcome = inactive
Ece2 (endothelin converting enzyme 2) #1: p65 translocation robust z-score = -0.19; nuclear/cytoplasmic p65 ratio, rep 1 = 1.39; nuclear/cytoplasmic p65 ratio, rep 2 = 1.37; low cell count flag = enough cells to score; Outcome = inactive
Ece2 (endothelin converting enzyme 2) #2: p65 translocation robust z-score = 0.41; nuclear/cytoplasmic p65 ratio, rep 1 = 1.52; nuclear/cytoplasmic p65 ratio, rep 2 = 1.69; low cell count flag = enough cells to score; Outcome = inactive
Foxe3 (forkhead box E3): p65 translocation robust z-score = -0.68; nuclear/cytoplasmic p65 ratio, rep 1 = 1.32; nuclear/cytoplasmic p65 ratio, rep 2 = 1.31; low cell count flag = enough cells to score; Outcome = inactive
Utp23 (UTP23 small subunit processome component): p65 translocation robust z-score = -3.35; nuclear/cytoplasmic p65 ratio, rep 1 = 1.13; nuclear/cytoplasmic p65 ratio, rep 2 = 1.02; low cell count flag = enough cells to score; Outcome = active
9330175E14Rik (RIKEN cDNA 9330175E14 gene) #1: p65 translocation robust z-score = -0.25; nuclear/cytoplasmic p65 ratio, rep 1 = 1.29; nuclear/cytoplasmic p65 ratio, rep 2 = 1.61; low cell count flag = enough cells to score; Outcome = inactive
9330175E14Rik (RIKEN cDNA 9330175E14 gene) #2: nuclear/cytoplasmic p65 ratio, rep 1 = 1.31; nuclear/cytoplasmic p65 ratio, rep 2 = 1.3; low cell count flag = fewer than 50 cells per well; well left out of scoring; Outcome = inactive
Lrrc56 (leucine rich repeat containing 56): nuclear/cytoplasmic p65 ratio, rep 1 = 1.12; nuclear/cytoplasmic p65 ratio, rep 2 = 1.38; low cell count flag = fewer than 50 cells per well; well left out of scoring; Outcome = inactive
Phykpl (5-phosphohydroxy-L-lysine phospholyase): p65 translocation robust z-score = 0.22; nuclear/cytoplasmic p65 ratio, rep 1 = 1.18; nuclear/cytoplasmic p65 ratio, rep 2 = 1.28; low cell count flag = enough cells to score; Outcome = inactive
Arhgdib (Rho, GDP dissociation inhibitor beta): p65 translocation robust z-score = -0.36; nuclear/cytoplasmic p65 ratio, rep 1 = 1.54; nuclear/cytoplasmic p65 ratio, rep 2 = 1.59; low cell count flag = enough cells to score; Outcome = inactive
Atp6v1e1 (ATPase, H+ transporting, lysosomal V1 subunit E1): p65 translocation robust z-score = -1.33; nuclear/cytoplasmic p65 ratio, rep 1 = 1.27; nuclear/cytoplasmic p65 ratio, rep 2 = 1.46; low cell count flag = enough cells to score; Outcome = inactive
Or4c52 (olfactory receptor family 4 subfamily C member 52): p65 translocation robust z-score = 1.06; nuclear/cytoplasmic p65 ratio, rep 1 = 1.69; nuclear/cytoplasmic p65 ratio, rep 2 = 1.63; low cell count flag = enough cells to score; Outcome = inactive

A portion taken from the entries so far:
Ece2 (endothelin converting enzyme 2) #1: p65 translocation robust z-score = -0.19; nuclear/cytoplasmic p65 ratio, rep 1 = 1.39; nuclear/cytoplasmic p65 ratio, rep 2 = 1.37; low cell count flag = enough cells to score; Outcome = inactive
Ece2 (endothelin converting enzyme 2) #2: p65 translocation robust z-score = 0.41; nuclear/cytoplasmic p65 ratio, rep 1 = 1.52; nuclear/cytoplasmic p65 ratio, rep 2 = 1.69; low cell count flag = enough cells to score; Outcome = inactive
